# Measurements from paper PMC7819943, “Rice protein-binding microarrays: a tool to detect cis-acting elements near promoter regions in rice”.
# The other results are listed elsewhere or left out.
# Molecular target: T1, OsSMF1 (Oryza sativa, UniProt Q6ZLB0 1-436)
# T1 sequence: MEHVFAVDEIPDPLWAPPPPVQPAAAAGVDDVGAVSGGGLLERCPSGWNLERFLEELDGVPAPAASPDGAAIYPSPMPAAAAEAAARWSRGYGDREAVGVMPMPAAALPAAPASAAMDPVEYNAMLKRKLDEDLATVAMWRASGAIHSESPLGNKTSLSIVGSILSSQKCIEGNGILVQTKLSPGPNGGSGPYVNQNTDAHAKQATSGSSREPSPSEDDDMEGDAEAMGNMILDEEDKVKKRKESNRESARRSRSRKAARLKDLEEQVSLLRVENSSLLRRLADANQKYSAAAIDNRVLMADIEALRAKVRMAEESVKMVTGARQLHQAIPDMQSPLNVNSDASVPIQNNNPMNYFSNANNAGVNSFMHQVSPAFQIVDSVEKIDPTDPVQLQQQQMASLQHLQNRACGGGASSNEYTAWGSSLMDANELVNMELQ
# Assay: protein-binding microarray (RPBM); PBS, 2% BSA, 51.3 ng/ul salmon testes DNA, 50 uM zinc acetate, 200 nM TF, 25 C, 1 h; high values mean tight binding
# Conditions: protein: recombinant; tags: N-terminal polyhistidine and DsRed monomer fusion (pET32a); chain copies: 2; label: CyDye5-dUTP incorporated in the synthesized complementary strand; 3' TTTTT single-stranded linker to array surface; dsDNA, one strand shown
# In short: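 Binding signal here means per-feature fluorescence intensity in arbitrary units. The values were read on an Axon 4000B scanner after a custom Agilent array, double-stranded by primer extension with Cy5-dUTP, was incubated with 200 nM protein at 25 °C for 1 h in PBS with 2% BSA, salmon testes DNA and 50 µM zinc acetate, then washed. The proteins were transcription factors with an N-terminal polyhistidine tag and DsRed, expressed in E. coli BL21-CodonPlus and purified on Ni–NTA.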
row,Sequence,binding signal
1,GTGGCTGGTGCTTGTATTGTGGTCATGGCGGATCGCTGCCCGGAGTCACCTAGTGCAG,3520 fluorescence intensity (a.u.)
2,ACTTAACTAATTATACGCTAATGACACATCTCACGCCTCCCGGAGTCACCTAGTGCAG,4290 fluorescence intensity (a.u.)
3,GCCACATCGCTCTCAGCCAGCGTTTCCAAGCGAGGAGGTACGGAGTCACCTAGTGCAG,3150 fluorescence intensity (a.u.)
4,AGAGGAGGGGAAAGAGATAGGGTGATGACGTGGAATCCTGCGGAGTCACCTAGTGCAG,25900 fluorescence intensity (a.u.)
5,ACATATCTGGTGGTTGGACTAGATGAAGAAGGAAGGAGGTCGGAGTCACCTAGTGCAG,12500 fluorescence intensity (a.u.)
6,TGAAAATATATTCAATTATTGATTCGATAAAACTAATTTACGGAGTCACCTAGTGCAG,3460 fluorescence intensity (a.u.)
7,GGTGTCCGCCATTTCTGCGTCACCGTCTGCCACTGCAAAACGGAGTCACCTAGTGCAG,7660 fluorescence intensity (a.u.)
8,TCGATACAGCTAATACCCGACCGCAACGTGGCGCGCTGACCGGAGTCACCTAGTGCAG,7540 fluorescence intensity (a.u.)
9,TGCATCACACGTACACATCTATCCATCGATCCAGTCCGCCCGGAGTCACCTAGTGCAG,4610 fluorescence intensity (a.u.)
10,GTGCGGAGGCCCATCAAATGCAGCCCAGCCCAGGGAGGTCCGGAGTCACCTAGTGCAG,30500 fluorescence intensity (a.u.)
11,GTTAAATTCGAGGGGTTTCTTGTAATTTCGGGGTGGATAACGGAGTCACCTAGTGCAG,3920 fluorescence intensity (a.u.)
12,TGCTGTGTATAGACGTGTCCCTTTTGTTGGTACACGCCCACGGAGTCACCTAGTGCAG,4620 fluorescence intensity (a.u.)
13,ACATCTCCACACCGCCACTCGCCAAGTCGTCGCCGCCGCCCGGAGTCACCTAGTGCAG,22600 fluorescence intensity (a.u.)
14,ACTTTACGAGTATAAAGCTCCGCATCATCCTCAAAGCAGGCGGAGTCACCTAGTGCAG,3660 fluorescence intensity (a.u.)
15,GTTGCTTGGACTCGGGCCGTGACAGACGTGACGCTTCCCTCGGAGTCACCTAGTGCAG,4100 fluorescence intensity (a.u.)
16,ATGTACTTGATGGAGAACAGTGGCAGCCTTAAGGATCAGACGGAGTCACCTAGTGCAG,11800 fluorescence intensity (a.u.)
17,GAGTCGAGCAGCGCGTCGGCGAGCGCGGACACGAGGTTGGCGGAGTCACCTAGTGCAG,3420 fluorescence intensity (a.u.)
18,AGAGGAGCCCTCGCGTCGGCAAAACCGACGTGACGTGGACCGGAGTCACCTAGTGCAG,30700 fluorescence intensity (a.u.)
19,CGGCAGCGAGAGGCCGGCCACGCACGCACGCACGTCGAAGCGGAGTCACCTAGTGCAG,6430 fluorescence intensity (a.u.)
20,TAGTTTTCTGCAACTTGAACCATAAAACATGTAGTTTTATCGGAGTCACCTAGTGCAG,3910 fluorescence intensity (a.u.)
21,CACAAGCATATGCTCGAAATGCAATGGCGCCTGACGTGTACGGAGTCACCTAGTGCAG,13600 fluorescence intensity (a.u.)

# Retrieved one by one from the list above (two):
row,Sequence,binding signal
3,GCCACATCGCTCTCAGCCAGCGTTTCCAAGCGAGGAGGTACGGAGTCACCTAGTGCAG,3150 fluorescence intensity (a.u.)
17,GAGTCGAGCAGCGCGTCGGCGAGCGCGGACACGAGGTTGGCGGAGTCACCTAGTGCAG,3420 fluorescence intensity (a.u.)

# Continued.

row,Sequence,binding signal
1,GCCTATTCGCGCCACCCACATCACGCCCCTACTCGAACATCGGAGTCACCTAGTGCAG,3500 fluorescence intensity (a.u.)
2,TCCGCCACCCAACACAGCAGCAGCTGCCACGTGCTCGCGCCGGAGTCACCTAGTGCAG,4720 fluorescence intensity (a.u.)
3,TCCGTTGAGATCAGCACTTTCTAGCAGCTGTACAAGAGACCGGAGTCACCTAGTGCAG,3740 fluorescence intensity (a.u.)
4,ATCATTAACCGCGTCTTATTATTGTATTTATTTAGTATTACGGAGTCACCTAGTGCAG,22200 fluorescence intensity (a.u.)
5,TGATCATAATACACGCACTACAACGTGGGAGCATCCATGTCGGAGTCACCTAGTGCAG,3940 fluorescence intensity (a.u.)
6,TTATTTGCACTGGTTTTGAAAATTGAGGAACACGTCATATCGGAGTCACCTAGTGCAG,13500 fluorescence intensity (a.u.)
7,CCACCACCACCTCACCACGACACCACTCCCCATGTCTAATCGGAGTCACCTAGTGCAG,4710 fluorescence intensity (a.u.)
8,GGTCACACACCATAAGGGCATGCATGTCAGCAGCTGGTCACGGAGTCACCTAGTGCAG,5290 fluorescence intensity (a.u.)
9,TTATATTGCAGAGACTTCTCCTTCGCGAATACGTGGGACACGGAGTCACCTAGTGCAG,4510 fluorescence intensity (a.u.)
10,TCTGATGTGGTGGCAGCCAATCCATTCTTTCCTAGTGGCACGGAGTCACCTAGTGCAG,5000 fluorescence intensity (a.u.)
11,TCCTTGTGCGCCTGAGTATCCCTTGCTGCCAGATCACTTACGGAGTCACCTAGTGCAG,4980 fluorescence intensity (a.u.)
12,CCACTGGAGCCACCTCATCACTGACCTCCCACCACCATTACGGAGTCACCTAGTGCAG,7740 fluorescence intensity (a.u.)
13,TACAATAAATCCCATCCAATCCAAGGGACAATTTGAATCACGGAGTCACCTAGTGCAG,5730 fluorescence intensity (a.u.)
14,TATGAAGTGCTGACTCGTAGTCGACGCCAGGGTAGCCTTCCGGAGTCACCTAGTGCAG,6010 fluorescence intensity (a.u.)
15,CATACTGCCCTCTAACATGGATCACTAACATATAGGCCCACGGAGTCACCTAGTGCAG,24100 fluorescence intensity (a.u.)
16,AATGTGTCCCGTATCCCGTAGCTAATTAATATGTTTTCACCGGAGTCACCTAGTGCAG,3240 fluorescence intensity (a.u.)
17,GCGGCGTCCCGTCACGGCATATCGGTCCGAAATGGTGCGCCGGAGTCACCTAGTGCAG,3450 fluorescence intensity (a.u.)
18,GGACCATTAACGATTTAATACACTGACACACACACACATACGGAGTCACCTAGTGCAG,3210 fluorescence intensity (a.u.)
19,GCTACTCCTAGTACAGGTTAGACAAGAAACAGACCAAGAACGGAGTCACCTAGTGCAG,3310 fluorescence intensity (a.u.)
20,TTACCCTCCGATCCGAATAAGCCCTAAGGCTAGTAGGCGACGGAGTCACCTAGTGCAG,18400 fluorescence intensity (a.u.)
21,CGCCCAACCGGCCAACCCACCGACGCGGCAGGCAGCGAGTCGGAGTCACCTAGTGCAG,3610 fluorescence intensity (a.u.)
